# Measurements reported in PubChem BioAssay AID504791 (Drosophila RNAi Screening Center, 2011)
# Assay: 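Factors in Argonaute-based small RNA production and activity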 (primary screen)
# Cells: Drosophila S2-derived reporter cells
# Reagents: long dsRNA against Drosophila genes, about 150-250 ng dsRNA per well (siRNA assay); about 80-120 ng (miRNA assay)
# Duration: about 5 days (siRNA assay); about 4 days (miRNA assay)
# Challenge: copper sulfate induction of reporters: 25 µM (siRNA assay); 200 mM stated (miRNA assay), 1-2 days before reading
# Measured: 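Dual luciferase assay: Renilla to firefly signal ratio in each well, scaled to the mean ratio of its plate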
# Call rule: 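First-pass picks had plate-scaled ratios over 1.5 for the siRNA assay, over 1.6 for the miRNA assay, or under 0.6; two distinct dsRNAs had to score alike on retest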
# The screen tested about 23,000 reagents; this is a random part of those with a known target gene and a result. Over the whole deposit, 199 (0.86%) got an active call. 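Plate-scaled ratios behind the calls are not deposited; printed light signals are raw; many rows marked increased or decreased are still called inactive.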 A number with no mark means an inactive call. No sequences are given here. Not stated in the record: the direction of the score.
target gene,DRSC id,stable siRNA reporter change,miRNA reporter change,"stable assay Renilla, run 1 (luminescence)","stable assay firefly, run 1 (luminescence)"
CR41501 (GeneID 5740839),DRSC07785,,,5442,3.73e5
CG10116 (GeneID 39515),DRSC09700,,,9418,5.18e5
CG7544 (GeneID 36680),DRSC07023,,,4519,3.80e5
tHMG1 (GeneID 42650),DRSC16181,,,9362,5.40e5
Esyt2 (GeneID 42929),DRSC16082,,,9106,3.71e5
CG31231 (GeneID 318638),DRSC13308,,,4704,3.68e5
Ssl2 (GeneID 43424),DRSC14395,,,6115,3.44e5
Ssl2 (GeneID 43424),DRSC22796,,,5024,4.15e5
RpL24 (GeneID 34754),DRSC03185,,,6734,3.28e5
CG7016 (GeneID 42968),DRSC16174,,,7503,4.16e5
CG15012 (GeneID 38529),DRSC08465,,,7997,3.52e5
CG9643 (GeneID 33504),DRSC00722,,,7747,5.15e5
BthD (GeneID 32317),DRSC19395,,,5287,5.79e5
CG2187 (GeneID 43743),DRSC15425,,,7361,4.73e5
mthl9 (GeneID 38056),DRSC08506,,,6655,3.67e5
ATPsynbetaL (GeneID 39761),DRSC10503,,,7211,3.23e5
Ir40a (GeneID 35449),DRSC03732,,,7479,3.72e5
Ir40a (GeneID 35449),DRSC03733,,,6927,5.19e5
CG11291 (GeneID 37541),DRSC04097,,,6599,4.45e5
CG4612 (GeneID 37914),DRSC04478,,,1.30e5,1.39e6
Sgs7 (GeneID 47198),DRSC11281,,,5447,4.28e5
Hmbs (GeneID 46140),DRSC08632,,,9144,3.70e5
grim (GeneID 40014),DRSC11352,reporter ratio raised past the hit cutoff,,6212,1.94e5
grim (GeneID 40014),DRSC23169,,,6471,4.50e5
Hel89B (GeneID 41943),DRSC16700,,,4523,3.52e5
Hel89B (GeneID 41943),DRSC21575,,reporter ratio lowered past the hit cutoff,9846,4.09e5
Tsp42El (GeneID 35622),DRSC06186,,,86129,1.66e6
Ir76a (GeneID 40157),DRSC10987,,,7807,3.10e5
CG8401 (GeneID 36770),DRSC07165,,,10064,4.04e5
MED1 (GeneID 40403),DRSC11808,,,8553,3.60e5
mon2 (GeneID 326157),DRSC03112,,,8031,3.28e5
CG31730 (GeneID 318920),DRSC01308,,,5524,3.30e5
rdgBbeta (GeneID 37011),DRSC07672,,,6288,3.10e5
CG14089 (GeneID 40101),DRSC10093,,,7570,3.93e5
Alg12 (GeneID 41191),DRSC16416,,,6659,4.14e5
CG3419 (retired record) (GeneID 37896),DRSC04368,,,6955,5.12e5
CG3419 (retired record) (GeneID 37896),DRSC04369,,reporter ratio lowered past the hit cutoff,5496,3.36e5
CG5866 (GeneID 42097),DRSC15900,,,9262,3.66e5
mAChR-A (GeneID 37892),DRSC04702,,,5702,3.82e5
CG13148 (GeneID 36398),DRSC06275,,,4415,2.42e5
bard (GeneID 42161),DRSC14796,,,6866,2.85e5
klhl10 (GeneID 3354863),DRSC05274,reporter ratio raised past the hit cutoff,,8384,3.26e5
klhl10 (GeneID 3354863),DRSC19171,,,3955,3.08e5
klhl10 (GeneID 3354863),DRSC20750,,,4679,2.40e5
klhl10 (GeneID 3354863),DRSC20925,,,6020,4.57e5
mRpL38 (GeneID 32375),DRSC19734,,,5643,4.53e5
CG30048 (GeneID 246415),DRSC22205,,,9163,5.17e5
CG30487 (GeneID 246646),DRSC05377,,,6023,3.54e5
E(spl)m6-BFM (GeneID 43159),DRSC16993,,,7222,3.58e5
CG5013 (GeneID 41951),DRSC15695,,,6902,3.37e5
siz (GeneID 40327),DRSC11622,,,6643,3.60e5
siz (GeneID 40327),DRSC11689,,,8351,3.41e5
siz (GeneID 40327),DRSC11690,,,9604,4.89e5
CG8420 (GeneID 41097),DRSC16418,,,6464,4.67e5
AnxB11 (GeneID 32612),DRSC19331,,,9042,7.25e5
COX6CL (GeneID 318868),DRSC00895,,,5079,5.12e5
PCNA2 (GeneID 35257),DRSC02030,,,6811,3.39e5

Quoted from the entries so far, 5 entries:
target gene,DRSC id,stable siRNA reporter change,miRNA reporter change,"stable assay Renilla, run 1 (luminescence)","stable assay firefly, run 1 (luminescence)"
ATPsynbetaL (GeneID 39761),DRSC10503,,,7211,3.23e5
Ir40a (GeneID 35449),DRSC03732,,,7479,3.72e5
Ir40a (GeneID 35449),DRSC03733,,,6927,5.19e5
CG11291 (GeneID 37541),DRSC04097,,,6599,4.45e5
CG4612 (GeneID 37914),DRSC04478,,,1.30e5,1.39e6
